Measured values published in patent US20240034790A1 (INNOBATION BIO, published 2024).
Results are given in words; binding and its absence hold for the method and conditions named. Some entries that bind do so weakly or less than the wild type.

Chains of the proteins cited; added tags and fusions are not shown. Residues count along the entry.
UniProt Q08722, residues 19-139: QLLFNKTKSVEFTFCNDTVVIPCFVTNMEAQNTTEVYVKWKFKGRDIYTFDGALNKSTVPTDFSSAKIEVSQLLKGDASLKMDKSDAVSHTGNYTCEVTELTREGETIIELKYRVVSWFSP

B1: 7C7 antibody (antibody, V domains shown)
VH: EVQLQQSGPELVKPGASVRMSCKASGYTFTSYVMHWVKQKPGQGLEWIGYINPYNDGTKYNEKFKGKSTLTSDKSSSTAYMELSSLTSEDSAVYCCARGRNRYDSWFAYWGQGTLVTVSA
VL: DIQMTQTTSSLSASLGDRVTISCRASQDISNYLNWYQQKPDGTVKLLIYYTSRLHSGVPSRFSGSGSGTDYSLTISNLEQEDIATYFCQQGNTLPWTFGGGTKLEIK
notes: Monoclonal antibody from a hybridoma (mouse myeloma fusion), detected with anti-mouse IgG; In the ELISA hybridoma culture solution was used
B2: 4E12 antibody (antibody, V domains shown)
VH: QIQFAQSGPELKKSGETVKISCRASGYTFTNYGMNWVKQAPGKGLKWMGWINTYTGEPTYADDFKGRFAFSLETSASTAYLQINNLKNEDMATYFCARGGGRGAMDYWGQGTTLTVSS
VL: DVLMTQTPLSLPVSLGDQASISCRSSQSIVHSNGNTYLDWYLQKPGQSPKLLIYKVSKRFSGVPDRFSGSGSGTDFTLKISRVEAEDLGVYYCFQGSHVPFTFGSGTKLEIK
notes: Hybridoma monoclonal antibody detected with anti-mouse IgG
B3: 3H3 antibody (antibody, V domains shown)
VH: EVQLQQPGPELVRPGASVKMSCKASGYTFTNYWMHWVKQRPGQGLEWIGMIDPSNSETRLNQKFKDKATLNVDKSSNTAYMQLSSLTSEDSAVYSCARGGFAFDSWGQGTTLTVSS
VL: DVLMTQTPLSLPVSLGDQASISCRSSQSLVHNNGNTYLHWYLQKPGQSPKLLIYKVSNRFSGVPDRFRGSGSGTDFTLKISRVEAEDLGVYFCSQSTHVPWTFGGGTKLEIK
notes: as for B2

Target: CD47 protein (Acrobiosystems, cat#CD7-HA2E9) (UniProt Q08722)
Test: ELISA on coated CD47 protein

Row | Binder | binding
1 | B1 | binds
2 | B2 | binds
3 | B3 | binds

Target: CD47 protein (Acrobiosystems, cat#CD7-HA2E9) (UniProt Q08722)
Test: ELISA screening of hybridoma clones

Row | Binder | binding
4 | B1 | binds
5 | B2 | binds
6 | B3 | binds
